Assay results reported in publication PMC12483569.
No constants are given. Whether binding was seen depends on the method and setting. Binding seen in cells or lysates may run through a third protein. Some results given as binding are weak or reduced against the parent protein; the word gives no strength. Sequences can lack the tags named with a protein.

Sequences of proteins named here, by UniProt entry; tags and fusion partners are left off.
UniProt P51532: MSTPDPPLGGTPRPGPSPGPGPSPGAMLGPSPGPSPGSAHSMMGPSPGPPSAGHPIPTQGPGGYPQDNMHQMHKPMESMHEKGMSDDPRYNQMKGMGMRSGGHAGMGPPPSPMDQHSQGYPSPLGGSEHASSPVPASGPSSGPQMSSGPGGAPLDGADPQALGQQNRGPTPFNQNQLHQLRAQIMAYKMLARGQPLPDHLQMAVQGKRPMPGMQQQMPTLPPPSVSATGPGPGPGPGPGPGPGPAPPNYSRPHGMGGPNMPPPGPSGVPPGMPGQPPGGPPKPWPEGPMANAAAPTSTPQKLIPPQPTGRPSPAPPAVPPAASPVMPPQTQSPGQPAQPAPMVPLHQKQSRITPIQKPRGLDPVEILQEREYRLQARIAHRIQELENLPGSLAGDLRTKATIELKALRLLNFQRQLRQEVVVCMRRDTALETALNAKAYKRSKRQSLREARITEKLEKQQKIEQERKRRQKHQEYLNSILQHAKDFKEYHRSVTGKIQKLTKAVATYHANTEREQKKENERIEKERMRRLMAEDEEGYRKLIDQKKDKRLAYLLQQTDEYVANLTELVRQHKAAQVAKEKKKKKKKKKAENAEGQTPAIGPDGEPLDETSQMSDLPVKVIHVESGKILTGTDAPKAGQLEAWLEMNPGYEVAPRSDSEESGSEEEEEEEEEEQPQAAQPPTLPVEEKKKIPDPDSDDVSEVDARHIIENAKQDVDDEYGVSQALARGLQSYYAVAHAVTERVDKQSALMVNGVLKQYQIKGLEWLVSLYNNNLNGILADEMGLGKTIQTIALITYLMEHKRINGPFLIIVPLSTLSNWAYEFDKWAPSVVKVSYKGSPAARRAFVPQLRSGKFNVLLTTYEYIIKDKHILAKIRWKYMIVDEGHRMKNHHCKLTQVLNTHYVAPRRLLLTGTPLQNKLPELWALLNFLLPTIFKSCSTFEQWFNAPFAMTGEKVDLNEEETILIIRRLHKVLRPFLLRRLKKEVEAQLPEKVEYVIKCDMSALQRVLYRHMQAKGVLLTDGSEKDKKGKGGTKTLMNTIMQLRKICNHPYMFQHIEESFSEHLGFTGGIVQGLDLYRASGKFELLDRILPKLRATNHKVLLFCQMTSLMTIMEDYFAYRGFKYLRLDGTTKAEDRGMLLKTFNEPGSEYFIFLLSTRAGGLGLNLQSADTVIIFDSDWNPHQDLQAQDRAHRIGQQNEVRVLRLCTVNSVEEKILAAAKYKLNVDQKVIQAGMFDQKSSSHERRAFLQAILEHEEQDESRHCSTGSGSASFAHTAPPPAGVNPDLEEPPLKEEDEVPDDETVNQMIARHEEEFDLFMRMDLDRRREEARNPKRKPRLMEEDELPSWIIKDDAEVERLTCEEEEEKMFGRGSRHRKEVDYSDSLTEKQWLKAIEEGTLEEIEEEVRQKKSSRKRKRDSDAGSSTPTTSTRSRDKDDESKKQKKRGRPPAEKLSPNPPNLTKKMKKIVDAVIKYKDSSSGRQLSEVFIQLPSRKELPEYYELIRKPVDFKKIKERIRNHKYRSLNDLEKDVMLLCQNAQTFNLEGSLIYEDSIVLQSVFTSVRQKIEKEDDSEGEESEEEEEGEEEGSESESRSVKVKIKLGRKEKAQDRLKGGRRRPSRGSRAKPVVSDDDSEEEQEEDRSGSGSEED
UniProt P70168: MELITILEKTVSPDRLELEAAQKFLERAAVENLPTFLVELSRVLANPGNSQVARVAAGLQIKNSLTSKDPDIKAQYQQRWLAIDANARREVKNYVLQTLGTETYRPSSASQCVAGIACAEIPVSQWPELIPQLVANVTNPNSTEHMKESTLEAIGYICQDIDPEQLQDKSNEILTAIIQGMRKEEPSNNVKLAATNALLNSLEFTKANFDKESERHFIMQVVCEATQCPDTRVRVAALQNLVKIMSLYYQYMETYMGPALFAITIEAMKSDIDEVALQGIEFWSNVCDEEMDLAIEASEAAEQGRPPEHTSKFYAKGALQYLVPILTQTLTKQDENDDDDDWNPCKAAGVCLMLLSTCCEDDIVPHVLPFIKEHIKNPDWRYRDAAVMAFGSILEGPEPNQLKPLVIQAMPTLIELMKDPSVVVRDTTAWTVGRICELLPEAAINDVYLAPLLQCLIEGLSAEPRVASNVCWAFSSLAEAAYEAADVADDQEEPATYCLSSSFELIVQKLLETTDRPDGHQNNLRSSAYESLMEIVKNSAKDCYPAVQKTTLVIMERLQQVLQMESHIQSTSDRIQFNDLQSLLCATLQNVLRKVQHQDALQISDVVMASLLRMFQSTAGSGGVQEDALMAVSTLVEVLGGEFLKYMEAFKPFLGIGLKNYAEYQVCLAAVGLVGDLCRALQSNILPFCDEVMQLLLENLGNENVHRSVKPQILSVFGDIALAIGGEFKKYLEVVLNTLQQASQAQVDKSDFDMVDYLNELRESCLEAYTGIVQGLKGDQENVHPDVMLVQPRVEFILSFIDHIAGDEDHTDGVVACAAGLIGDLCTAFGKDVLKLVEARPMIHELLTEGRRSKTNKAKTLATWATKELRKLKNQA
UniProt Q3TKT4: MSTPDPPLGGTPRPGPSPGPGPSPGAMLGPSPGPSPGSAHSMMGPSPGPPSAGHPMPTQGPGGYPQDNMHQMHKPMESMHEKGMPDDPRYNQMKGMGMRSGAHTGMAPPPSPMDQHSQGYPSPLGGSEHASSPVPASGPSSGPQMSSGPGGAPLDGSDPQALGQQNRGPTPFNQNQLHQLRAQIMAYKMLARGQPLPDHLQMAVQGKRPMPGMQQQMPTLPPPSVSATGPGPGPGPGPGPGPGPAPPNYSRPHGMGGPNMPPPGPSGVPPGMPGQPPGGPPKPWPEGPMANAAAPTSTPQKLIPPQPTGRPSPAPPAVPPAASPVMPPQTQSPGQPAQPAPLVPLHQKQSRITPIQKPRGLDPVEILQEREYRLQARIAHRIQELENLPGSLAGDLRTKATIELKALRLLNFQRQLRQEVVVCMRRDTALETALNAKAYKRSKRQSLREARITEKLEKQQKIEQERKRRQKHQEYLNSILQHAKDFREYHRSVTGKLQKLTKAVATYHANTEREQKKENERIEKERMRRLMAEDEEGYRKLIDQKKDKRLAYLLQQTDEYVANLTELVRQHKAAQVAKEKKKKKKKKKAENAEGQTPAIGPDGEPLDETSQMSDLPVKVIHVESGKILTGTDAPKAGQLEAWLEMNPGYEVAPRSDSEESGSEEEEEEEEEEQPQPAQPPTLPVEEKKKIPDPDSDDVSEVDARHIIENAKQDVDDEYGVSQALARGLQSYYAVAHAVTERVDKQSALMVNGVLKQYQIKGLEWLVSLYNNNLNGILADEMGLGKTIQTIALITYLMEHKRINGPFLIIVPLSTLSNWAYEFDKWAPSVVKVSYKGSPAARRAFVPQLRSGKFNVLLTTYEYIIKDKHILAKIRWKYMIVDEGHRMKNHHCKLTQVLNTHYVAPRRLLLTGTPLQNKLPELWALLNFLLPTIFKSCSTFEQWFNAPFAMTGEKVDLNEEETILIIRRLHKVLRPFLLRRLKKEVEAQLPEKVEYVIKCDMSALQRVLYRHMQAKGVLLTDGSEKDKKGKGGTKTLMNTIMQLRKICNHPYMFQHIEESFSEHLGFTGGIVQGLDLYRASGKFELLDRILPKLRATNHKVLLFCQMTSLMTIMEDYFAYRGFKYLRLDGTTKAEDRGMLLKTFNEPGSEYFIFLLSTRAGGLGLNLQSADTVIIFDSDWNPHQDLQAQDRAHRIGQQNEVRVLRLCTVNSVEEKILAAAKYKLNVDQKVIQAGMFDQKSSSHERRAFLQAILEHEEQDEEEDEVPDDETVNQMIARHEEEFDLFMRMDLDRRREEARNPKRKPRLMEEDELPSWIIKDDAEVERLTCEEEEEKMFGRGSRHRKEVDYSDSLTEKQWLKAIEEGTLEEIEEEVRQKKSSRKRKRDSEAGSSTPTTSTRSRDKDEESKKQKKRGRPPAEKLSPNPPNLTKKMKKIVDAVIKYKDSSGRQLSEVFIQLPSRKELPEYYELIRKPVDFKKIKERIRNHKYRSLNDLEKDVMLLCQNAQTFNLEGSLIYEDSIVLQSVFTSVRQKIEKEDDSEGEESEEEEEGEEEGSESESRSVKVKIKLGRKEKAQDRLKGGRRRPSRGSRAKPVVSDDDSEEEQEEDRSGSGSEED

What was measured:
GST-SGK3 = molecular target: T1, GST-SGK3 (UniProt Q9ERE3); assay: pull-down; GST pulldown with purified GST or GST-SGK3 proteins as baits; BRG1 band detected; the source of BRG1 is not told; the paper calls the interaction direct
T1 sequence: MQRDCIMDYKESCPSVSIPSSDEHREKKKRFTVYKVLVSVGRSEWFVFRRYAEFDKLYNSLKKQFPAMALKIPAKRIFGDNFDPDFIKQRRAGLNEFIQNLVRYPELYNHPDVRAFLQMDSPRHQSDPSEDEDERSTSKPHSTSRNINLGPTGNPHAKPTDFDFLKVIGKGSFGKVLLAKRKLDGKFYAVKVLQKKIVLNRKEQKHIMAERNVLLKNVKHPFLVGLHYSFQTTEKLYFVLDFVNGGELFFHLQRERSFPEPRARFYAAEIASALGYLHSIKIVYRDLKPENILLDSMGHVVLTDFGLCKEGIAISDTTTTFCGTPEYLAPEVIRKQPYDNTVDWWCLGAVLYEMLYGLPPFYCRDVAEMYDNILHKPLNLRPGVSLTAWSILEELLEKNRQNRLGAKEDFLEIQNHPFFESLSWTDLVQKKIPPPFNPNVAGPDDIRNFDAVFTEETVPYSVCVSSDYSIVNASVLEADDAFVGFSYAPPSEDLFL

[1] = molecular target: T2, serum- and glucocorticoid-induced kinase 3 (SGK3), in co-IP from differentiating cells (UniProt Q9ERE3); assay: co-IP; cells treated with MDI for 3 days (Figure 5F), or with or without MDI for 2 days (Figure 5G); the interaction was markedly enhanced by MDI; which partner was precipitated is not told
T2 sequence: T1 sequence

[2] = molecular target: T2, serum- and glucocorticoid-induced kinase 3 (SGK3), in co-IP from differentiating cells; assay: co-IP; differentiating SVF cells; which partner was precipitated is not told

For “BRG1 protein in the GST pulldown assay (from UniProt P51532 1-1647)”, the binding (GST-SGK3) was “binds”.
For Importin β1 (from UniProt P70168 1-876), the binding [1] was “binds”.
“SMARCA4 (BRG1), core subunit of the BAF (SWI/SNF) complex, in differentiating SVF cells (from UniProt Q3TKT4 1-1613)” was tested, and the binding [2] was “binds”.
